Experimental data published in PMC9497199.
No constants are given. Whether binding was seen depends on the method and setting. In cells and extracts the contact can be indirect. Some entries that bind do so weakly or less than the wild type.

The chains behind the UniProt entries cited, without tags or fusion partners.
UniProt Q99708: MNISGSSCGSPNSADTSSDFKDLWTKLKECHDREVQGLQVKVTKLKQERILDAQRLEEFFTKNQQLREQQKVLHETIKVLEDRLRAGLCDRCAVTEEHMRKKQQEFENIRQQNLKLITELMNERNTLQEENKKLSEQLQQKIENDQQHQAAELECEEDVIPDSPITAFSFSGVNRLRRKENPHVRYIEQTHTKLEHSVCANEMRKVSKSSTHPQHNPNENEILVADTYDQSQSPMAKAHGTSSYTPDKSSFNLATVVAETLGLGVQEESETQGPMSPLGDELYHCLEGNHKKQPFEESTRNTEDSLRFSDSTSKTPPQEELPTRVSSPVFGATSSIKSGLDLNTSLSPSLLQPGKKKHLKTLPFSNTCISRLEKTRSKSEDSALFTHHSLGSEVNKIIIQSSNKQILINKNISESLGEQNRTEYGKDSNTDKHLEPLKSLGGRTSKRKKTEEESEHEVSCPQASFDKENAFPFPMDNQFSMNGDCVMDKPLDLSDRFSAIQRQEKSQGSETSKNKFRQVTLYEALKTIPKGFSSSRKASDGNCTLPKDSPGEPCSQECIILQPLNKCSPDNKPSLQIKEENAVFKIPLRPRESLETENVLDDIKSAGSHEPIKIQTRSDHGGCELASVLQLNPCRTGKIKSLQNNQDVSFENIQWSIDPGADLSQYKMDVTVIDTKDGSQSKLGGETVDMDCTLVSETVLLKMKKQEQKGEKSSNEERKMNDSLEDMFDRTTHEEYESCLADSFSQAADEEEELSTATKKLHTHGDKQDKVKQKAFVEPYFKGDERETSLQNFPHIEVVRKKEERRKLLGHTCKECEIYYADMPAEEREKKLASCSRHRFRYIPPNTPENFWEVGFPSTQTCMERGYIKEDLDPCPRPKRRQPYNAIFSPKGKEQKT
UniProt Q9ULW0: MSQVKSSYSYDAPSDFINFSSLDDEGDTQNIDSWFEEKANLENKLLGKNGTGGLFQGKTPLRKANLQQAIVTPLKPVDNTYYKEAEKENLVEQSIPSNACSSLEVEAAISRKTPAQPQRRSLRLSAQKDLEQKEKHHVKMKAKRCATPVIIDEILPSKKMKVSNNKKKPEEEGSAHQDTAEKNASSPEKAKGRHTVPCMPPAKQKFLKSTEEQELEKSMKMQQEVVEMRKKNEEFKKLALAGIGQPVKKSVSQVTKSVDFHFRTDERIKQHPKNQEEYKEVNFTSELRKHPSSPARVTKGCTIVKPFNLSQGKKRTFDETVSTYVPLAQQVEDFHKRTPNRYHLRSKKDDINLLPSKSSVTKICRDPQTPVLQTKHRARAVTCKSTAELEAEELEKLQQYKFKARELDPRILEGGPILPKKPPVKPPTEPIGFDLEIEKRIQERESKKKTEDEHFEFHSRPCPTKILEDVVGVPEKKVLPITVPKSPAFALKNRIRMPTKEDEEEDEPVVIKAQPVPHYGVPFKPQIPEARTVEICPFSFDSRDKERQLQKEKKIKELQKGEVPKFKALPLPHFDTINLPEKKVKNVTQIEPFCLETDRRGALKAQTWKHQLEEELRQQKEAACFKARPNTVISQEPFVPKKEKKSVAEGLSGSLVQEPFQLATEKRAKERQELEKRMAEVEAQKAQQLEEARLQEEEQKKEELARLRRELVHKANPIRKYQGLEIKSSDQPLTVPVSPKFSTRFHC

Columns and labels:
[1] = biological target: endogenous CtIP (human (endogenous in HEK293T)) (UniProt Q99708); test: co-IP; endogenous proteins; lysates of HEK293T cells transfected with control siRNA or CtIP siRNA immunoprecipitated with anti-CtIP or anti-TPX2 antibody; immunoblot
[2] = biological target: Flag-tagged full length CtIP (human) (UniProt Q99708); test: co-IP; HEK293T cells co-transfected with Flag-CtIP and HA-TPX2; 1 mg total lysate immunoprecipitated with anti-Flag or anti-HA antibody, protein G sepharose, 4 °C; immunoblot

| Substance | binding [1] | binding [2] |
| --- | --- | --- |
| endogenous TPX2 (from UniProt Q9ULW0 1-747) | binds |  |
| HA-tagged full length TPX2 (from UniProt Q9ULW0 1-747) |  | binds |
